# Measurements as given in US20100113421A1, “NON-NUCLEOSIDE REVERSE TRANSCRIPTASE INHIBITORS” (priority 2006, published 2010).
# Some of these results come from one statement about several compounds together.
# Test system: T-lymphoid cells
# Assay: Cytotoxicity by microscopic examination of cells in the spread assay
# Assay type: cell-based
# Settings: no cytotoxicity at concentrations of up to 8 micromolar; spread assay cultures
row,SMILES,cytotoxicity (lowest concentration at which a morphological change is observed) [micromolar]
1,"Cc1c(C(=O)N(C)Cc2ccccc2F)[nH]c(C(N)=O)c1S(=O)(=O)c1cc(Cl)cc(Cl)c1 [Example 33, N-(2-fluorobenzyl)-N,3-dimethyl-4-(3,5-dichlorophenylsulfonyl)-1H-pyrrole-2,5-dicarboxamide]",> 8
2,"Cc1c(C(=O)N(C)Cc2ccccc2Cl)[nH]c(C(N)=O)c1S(=O)(=O)c1cc(Cl)cc(Cl)c1 [Example 34, N-(2-chlorobenzyl)-N,3-dimethyl-4-(3,5-dichlorophenylsulfonyl)-1H-pyrrole-2,5-dicarboxamide]",> 8
3,"Cc1c(C(=O)N(C)Cc2ccc(Cl)cc2F)[nH]c(C(N)=O)c1S(=O)(=O)c1cc(Cl)cc(Cl)c1 [Example 35, N-(4-chloro-2-fluorobenzyl)-N,3-dimethyl-4-(3,5-dichlorophenylsulfonyl)-1H-pyrrole-2,5-dicarboxamide]",> 8
4,"COc1cccc(CN(C)C(=O)c2[nH]c(C(N)=O)c(S(=O)(=O)c3ccccc3)c2C)c1 [Example 36, N-(3-methoxyobenzyl)-N,3-dimethyl-4-(phenylsulfonyl)-1H-pyrrole-2,5-dicarboxamide]",> 8
5,"Cc1c(C(=O)N(C)Cc2ccsc2)[nH]c(C(N)=O)c1S(=O)(=O)c1ccccc1 [Example 38, N,3-dimethyl-4-(phenylsulfonyl)-N-(3-thienylmethyl)-1H-pyrrole-2,5-dicarboxamide]",> 8
6,"Cc1c(C(=O)N(C)Cc2ccncc2Cl)[nH]c(C(N)=O)c1S(=O)(=O)c1ccccc1 [Example 39, N-[(3-chloro-4-pyridinyl)methyl]-N,3-dimethyl-4-(phenylsulfonyl)-1H-pyrrole-2,5-dicarboxamide]",> 8
7,"Cc1cc(C)cc(S(=O)(=O)c2c(C(N)=O)[nH]c(C(=O)N(C)Cc3ccc4ncccc4c3)c2C)c1 [Example 40, 4-[(3,5-Dimethylphenyl)sulfonyl]-N,3-dimethyl-N-(6-quinolinylmethyl)-1H-pyrrole-2,5-dicarboxamide]",> 8
8,"Cc1c(C(=O)N(C)Cc2cc3cccnc3cc2Cl)[nH]c(C(N)=O)c1S(=O)(=O)c1ccccc1 [Example 41, N-[(7-Chloro-6-quinolinyl)methyl]-N,3-dimethyl-4-(phenylsulfonyl)-1H-pyrrole-2,5-dicarboxamide]",> 8
9,"Cc1c(C(=O)N(C)Cc2ccc3ncccc3c2Cl)[nH]c(C(N)=O)c1S(=O)(=O)c1ccccc1 [Example 42, N-[(5-Chloro-6-quinolinyl)methyl]-N,3-dimethyl-4-(phenylsulfonyl)-1H-pyrrole-2,5-dicarboxamide]",> 8
10,Cc1c(C(=O)N(C)Cc2ccc3ncccc3c2)[nH]c(C(N)=O)c1S(=O)(=O)c1ccccc1 [Example 43],> 8
11,Cc1cccc(S(=O)(=O)c2c(C(N)=O)[nH]c(C(=O)N(C)Cc3ccc4ncccc4c3)c2C)c1 [Example 44],> 8
12,Cc1c(C(=O)N(C)Cc2ccc3ncccc3c2)[nH]c(C(N)=O)c1S(=O)(=O)c1cccc(F)c1 [Example 45],> 8
13,"Cc1c(C(=O)N(C)Cc2ccc3ncccc3c2)[nH]c(C(N)=O)c1S(=O)(=O)c1cccc(C(F)(F)F)c1 [Example 46, N,3-dimethyl-N-(6-quinolinylmethyl)-4-{[3-(trifluoromethyl)phenyl]sulfonyl}-1H-pyrrole-2,5-dicarboxamide]",> 8
14,"Cc1cc(C)cc(S(=O)(=O)c2c(C(N)=O)[nH]c(C(=O)N(C)Cc3ccc4ncccc4c3Cl)c2C)c1 [Example 47, N-[(5-chloro-6-quinolinyl)methyl]-4-[(3,5-dimethylphenyl)sulfonyl]-N,3-dimethyl-1H-pyrrole-2,5-dicarboxamide]",> 8
15,"Cc1cc(C)cc(S(=O)(=O)c2c(C(N)=O)[nH]c(C(=O)N(C)Cc3cc4cccnc4cc3Cl)c2C)c1 [Example 48, N-[(7-chloro-6-quinolinyl)methyl]-4-[(3,5-dimethylphenyl)sulfonyl]-N,3-dimethyl-1H-pyrrole-2,5-dicarboxamide]",> 8
16,"Cc1c(C(=O)N(C)Cc2ccc3ncccc3c2Cl)[nH]c(C(N)=O)c1S(=O)(=O)c1cc(F)cc(F)c1 [Example 49, N-[(5-chloro-6-quinolinyl)methyl]-4-[(3,5-difluorophenyl)sulfonyl]-N,3-dimethyl-1H-pyrrole-2,5-dicarboxamide]",> 8
17,"Cc1c(C(=O)N(C)Cc2cc3cccnc3cc2Cl)[nH]c(C(N)=O)c1S(=O)(=O)c1cc(F)cc(F)c1 [Example 50, N-[(7-chloro-6-quinolinyl)methyl]-4-[(3,5-difluorophenyl)sulfonyl]-N,3-dimethyl-1H-pyrrole-2,5-dicarboxamide]",> 8
18,"Cc1c(C(=O)N(C)Cc2ccc3ncccc3c2)[nH]c(C(N)=O)c1S(=O)(=O)c1cc(F)cc(Cl)c1 [Example 51, 4-[(3-chloro-5-fluorophenyl)sulfonyl]-N,3-dimethyl-N-(6-quinolinylmethyl)-1H-pyrrole-2,5-dicarboxamide]",> 8
19,"Cc1c(C(=O)N(C)Cc2ccc3ncccc3c2Cl)[nH]c(C(N)=O)c1S(=O)(=O)c1cc(F)cc(Cl)c1 [Example 52, 4-[(3-chloro-5-fluorophenyl)sulfonyl]-N-[(5-chloro-6-quinolinyl)methyl]-N,3-dimethyl-1H-pyrrole-2,5-dicarboxamide]",> 8
20,"Cc1c(C(=O)N(C)Cc2cc3cccnc3cc2Cl)[nH]c(C(N)=O)c1S(=O)(=O)c1cc(F)cc(Cl)c1 [Example 53, 4-[(3-chloro-5-fluorophenyl)sulfonyl]-N-[(7-chloro-6-quinolinyl)methyl]-N,3-dimethyl-1H-pyrrole-2,5-dicarboxamide]",> 8
21,"Cc1c(C(=O)N(C)Cc2ccc3ncccc3c2)[nH]c(C(N)=O)c1S(=O)(=O)c1cc(Cl)cc(Cl)c1 [Example 54, 4-[(3,5-dichlorophenyl)sulfonyl]-N,3-dimethyl-N-(6-quinolinylmethyl)-1H-pyrrole-2,5-dicarboxamide]",> 8
22,"Cc1c(C(=O)N(C)Cc2ccc3ncccc3c2Cl)[nH]c(C(N)=O)c1S(=O)(=O)c1cc(Cl)cc(Cl)c1 [Example 55, N-[(5-chloro-6-quinolinyl)methyl]-4-[(3,5-dichlorophenyl)sulfonyl]-N,3-dimethyl-1H-pyrrole-2,5-dicarboxamide]",> 8
23,"Cc1c(C(=O)N(C)Cc2cc3cccnc3cc2Cl)[nH]c(C(N)=O)c1S(=O)(=O)c1cc(Cl)cc(Cl)c1 [Example 56, N-[(7-chloro-6-quinolinyl)methyl]-4-[(3,5-dichlorophenyl)sulfonyl]-N,3-dimethyl-1H-pyrrole-2,5-dicarboxamide]",> 8
